Test results taken from the supplement of paper PMC12819154, “High-throughput peptide-centric local stability assay extends protein–ligand identification to membrane proteins, tissues and bacteria” (Nature Structural & Molecular Biology, 2025).
The other results are listed elsewhere or left out. Most values lie at the level of the controls, where differences are scatter.

Amino acid sequences for entries named in this document (tags omitted). A change or cut given only in a name is not applied to a line headed by its entry.
UniProt Q9H765, whole entry: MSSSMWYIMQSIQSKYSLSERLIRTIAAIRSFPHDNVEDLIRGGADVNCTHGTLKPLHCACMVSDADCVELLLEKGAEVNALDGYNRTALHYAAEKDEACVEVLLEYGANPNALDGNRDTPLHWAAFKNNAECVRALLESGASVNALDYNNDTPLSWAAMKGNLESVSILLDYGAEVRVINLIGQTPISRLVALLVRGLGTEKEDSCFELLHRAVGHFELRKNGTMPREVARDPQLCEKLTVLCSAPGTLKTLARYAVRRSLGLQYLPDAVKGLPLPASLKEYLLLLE
UniProt Q9H9B4: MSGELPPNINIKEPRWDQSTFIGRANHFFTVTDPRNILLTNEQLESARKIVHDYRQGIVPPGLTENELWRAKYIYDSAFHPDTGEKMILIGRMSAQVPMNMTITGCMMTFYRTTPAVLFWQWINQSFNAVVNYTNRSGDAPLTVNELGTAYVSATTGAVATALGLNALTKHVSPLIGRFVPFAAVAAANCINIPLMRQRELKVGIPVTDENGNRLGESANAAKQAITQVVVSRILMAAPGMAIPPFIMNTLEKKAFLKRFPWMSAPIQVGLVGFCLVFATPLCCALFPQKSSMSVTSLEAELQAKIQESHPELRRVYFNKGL
UniProt Q9HAV4: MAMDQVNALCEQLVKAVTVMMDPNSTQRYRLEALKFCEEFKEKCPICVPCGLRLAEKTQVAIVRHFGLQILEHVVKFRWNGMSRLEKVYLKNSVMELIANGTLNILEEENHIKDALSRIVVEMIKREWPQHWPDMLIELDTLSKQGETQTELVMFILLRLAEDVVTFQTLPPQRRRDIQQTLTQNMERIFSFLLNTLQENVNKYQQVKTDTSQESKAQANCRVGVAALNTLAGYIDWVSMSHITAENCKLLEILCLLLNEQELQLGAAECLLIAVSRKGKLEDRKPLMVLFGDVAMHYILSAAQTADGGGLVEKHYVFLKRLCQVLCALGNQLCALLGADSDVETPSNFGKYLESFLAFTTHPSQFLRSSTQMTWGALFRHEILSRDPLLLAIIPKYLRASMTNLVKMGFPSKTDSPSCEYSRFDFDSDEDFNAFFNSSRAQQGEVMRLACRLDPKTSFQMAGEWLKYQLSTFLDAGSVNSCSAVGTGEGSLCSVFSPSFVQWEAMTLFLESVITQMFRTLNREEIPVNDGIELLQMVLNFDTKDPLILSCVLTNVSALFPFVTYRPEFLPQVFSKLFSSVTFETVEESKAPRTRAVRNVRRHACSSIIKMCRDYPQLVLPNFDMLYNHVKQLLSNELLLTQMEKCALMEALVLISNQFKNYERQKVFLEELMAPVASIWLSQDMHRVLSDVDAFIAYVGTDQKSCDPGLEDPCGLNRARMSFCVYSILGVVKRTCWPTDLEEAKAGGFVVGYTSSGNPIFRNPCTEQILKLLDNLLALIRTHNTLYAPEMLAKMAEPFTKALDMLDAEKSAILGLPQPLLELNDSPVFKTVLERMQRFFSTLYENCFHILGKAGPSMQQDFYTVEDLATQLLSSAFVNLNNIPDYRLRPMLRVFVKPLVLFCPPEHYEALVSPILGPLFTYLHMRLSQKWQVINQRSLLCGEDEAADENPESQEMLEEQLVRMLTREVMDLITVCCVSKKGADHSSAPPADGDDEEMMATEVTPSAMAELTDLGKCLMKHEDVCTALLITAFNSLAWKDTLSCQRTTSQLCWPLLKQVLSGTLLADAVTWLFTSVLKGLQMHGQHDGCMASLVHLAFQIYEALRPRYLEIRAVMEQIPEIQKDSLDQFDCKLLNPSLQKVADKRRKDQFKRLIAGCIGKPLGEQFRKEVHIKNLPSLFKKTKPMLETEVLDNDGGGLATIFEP
UniProt Q9HBR0: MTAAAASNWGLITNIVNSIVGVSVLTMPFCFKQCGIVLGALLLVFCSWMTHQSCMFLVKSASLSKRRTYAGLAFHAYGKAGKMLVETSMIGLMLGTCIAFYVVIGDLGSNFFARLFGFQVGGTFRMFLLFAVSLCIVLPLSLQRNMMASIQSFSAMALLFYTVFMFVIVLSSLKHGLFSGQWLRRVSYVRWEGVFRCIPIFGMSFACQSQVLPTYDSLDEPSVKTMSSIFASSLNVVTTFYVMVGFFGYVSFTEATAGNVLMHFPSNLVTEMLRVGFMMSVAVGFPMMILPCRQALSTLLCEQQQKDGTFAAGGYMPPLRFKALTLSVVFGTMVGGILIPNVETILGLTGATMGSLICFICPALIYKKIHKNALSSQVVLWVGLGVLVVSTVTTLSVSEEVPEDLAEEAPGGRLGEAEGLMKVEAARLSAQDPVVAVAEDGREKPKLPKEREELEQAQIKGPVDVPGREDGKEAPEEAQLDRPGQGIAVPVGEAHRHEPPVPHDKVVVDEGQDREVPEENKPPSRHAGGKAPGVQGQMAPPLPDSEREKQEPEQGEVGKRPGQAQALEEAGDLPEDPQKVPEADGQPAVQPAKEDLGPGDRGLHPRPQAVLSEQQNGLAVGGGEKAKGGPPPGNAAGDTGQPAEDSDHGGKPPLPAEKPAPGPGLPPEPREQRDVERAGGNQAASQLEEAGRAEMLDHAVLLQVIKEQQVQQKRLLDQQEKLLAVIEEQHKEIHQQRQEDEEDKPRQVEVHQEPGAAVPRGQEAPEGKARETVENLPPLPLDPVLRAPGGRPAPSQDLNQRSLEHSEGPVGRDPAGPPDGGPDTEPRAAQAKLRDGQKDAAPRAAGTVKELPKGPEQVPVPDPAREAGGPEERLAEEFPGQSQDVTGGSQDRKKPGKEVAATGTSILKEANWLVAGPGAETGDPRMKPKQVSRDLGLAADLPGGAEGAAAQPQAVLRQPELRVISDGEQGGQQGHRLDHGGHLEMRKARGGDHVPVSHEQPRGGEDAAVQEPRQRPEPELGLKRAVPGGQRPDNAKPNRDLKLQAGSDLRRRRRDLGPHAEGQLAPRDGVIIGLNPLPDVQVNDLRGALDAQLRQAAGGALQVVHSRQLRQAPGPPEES
UniProt Q9H1P3, whole entry: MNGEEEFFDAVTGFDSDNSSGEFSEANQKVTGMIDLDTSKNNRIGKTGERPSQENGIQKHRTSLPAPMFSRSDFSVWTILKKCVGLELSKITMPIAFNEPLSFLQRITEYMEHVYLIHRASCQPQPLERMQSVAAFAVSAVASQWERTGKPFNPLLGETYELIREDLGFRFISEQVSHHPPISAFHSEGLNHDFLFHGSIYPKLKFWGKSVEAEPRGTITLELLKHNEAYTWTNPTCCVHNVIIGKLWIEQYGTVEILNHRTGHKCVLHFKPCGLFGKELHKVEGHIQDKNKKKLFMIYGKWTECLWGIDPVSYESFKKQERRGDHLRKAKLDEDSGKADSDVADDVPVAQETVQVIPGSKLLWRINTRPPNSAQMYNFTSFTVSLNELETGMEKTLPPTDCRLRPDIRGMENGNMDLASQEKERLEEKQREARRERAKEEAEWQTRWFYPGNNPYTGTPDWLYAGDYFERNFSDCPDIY
UniProt Q9H7P9: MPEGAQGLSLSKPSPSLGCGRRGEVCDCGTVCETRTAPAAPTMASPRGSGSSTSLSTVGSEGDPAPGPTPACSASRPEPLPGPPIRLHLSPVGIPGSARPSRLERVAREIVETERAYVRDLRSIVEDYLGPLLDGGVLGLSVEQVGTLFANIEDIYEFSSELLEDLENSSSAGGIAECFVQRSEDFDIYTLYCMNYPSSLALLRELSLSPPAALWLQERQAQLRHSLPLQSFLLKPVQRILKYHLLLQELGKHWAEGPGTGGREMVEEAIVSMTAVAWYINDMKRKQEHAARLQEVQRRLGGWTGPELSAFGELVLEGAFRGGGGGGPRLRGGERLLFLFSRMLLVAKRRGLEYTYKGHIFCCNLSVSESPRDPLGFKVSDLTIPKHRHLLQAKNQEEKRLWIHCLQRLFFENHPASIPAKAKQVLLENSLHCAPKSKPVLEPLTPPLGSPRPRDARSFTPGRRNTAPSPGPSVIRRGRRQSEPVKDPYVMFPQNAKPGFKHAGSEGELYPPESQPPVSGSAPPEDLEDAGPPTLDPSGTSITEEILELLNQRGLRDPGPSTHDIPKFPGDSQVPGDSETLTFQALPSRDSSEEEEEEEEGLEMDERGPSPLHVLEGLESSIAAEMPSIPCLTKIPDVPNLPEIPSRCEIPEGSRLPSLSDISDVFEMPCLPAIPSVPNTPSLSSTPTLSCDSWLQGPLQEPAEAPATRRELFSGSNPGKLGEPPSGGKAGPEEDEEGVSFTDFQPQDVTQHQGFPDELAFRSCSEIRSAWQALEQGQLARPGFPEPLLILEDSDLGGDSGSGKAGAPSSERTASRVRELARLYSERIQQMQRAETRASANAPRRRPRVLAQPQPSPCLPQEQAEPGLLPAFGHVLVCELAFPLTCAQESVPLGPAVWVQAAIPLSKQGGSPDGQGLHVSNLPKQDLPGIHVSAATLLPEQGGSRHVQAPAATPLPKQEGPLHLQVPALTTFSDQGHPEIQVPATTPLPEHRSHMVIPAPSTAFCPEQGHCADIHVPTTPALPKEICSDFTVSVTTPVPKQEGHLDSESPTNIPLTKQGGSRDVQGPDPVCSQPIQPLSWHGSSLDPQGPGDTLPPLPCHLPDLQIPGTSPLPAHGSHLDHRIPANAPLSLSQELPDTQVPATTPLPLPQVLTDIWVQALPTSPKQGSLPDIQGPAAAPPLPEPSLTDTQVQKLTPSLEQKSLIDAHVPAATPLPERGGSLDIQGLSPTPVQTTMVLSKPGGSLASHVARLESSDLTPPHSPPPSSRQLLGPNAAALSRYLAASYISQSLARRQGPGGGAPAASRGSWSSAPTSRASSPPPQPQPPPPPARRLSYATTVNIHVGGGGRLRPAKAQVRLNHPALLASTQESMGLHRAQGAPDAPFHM
UniProt Q9H5U6: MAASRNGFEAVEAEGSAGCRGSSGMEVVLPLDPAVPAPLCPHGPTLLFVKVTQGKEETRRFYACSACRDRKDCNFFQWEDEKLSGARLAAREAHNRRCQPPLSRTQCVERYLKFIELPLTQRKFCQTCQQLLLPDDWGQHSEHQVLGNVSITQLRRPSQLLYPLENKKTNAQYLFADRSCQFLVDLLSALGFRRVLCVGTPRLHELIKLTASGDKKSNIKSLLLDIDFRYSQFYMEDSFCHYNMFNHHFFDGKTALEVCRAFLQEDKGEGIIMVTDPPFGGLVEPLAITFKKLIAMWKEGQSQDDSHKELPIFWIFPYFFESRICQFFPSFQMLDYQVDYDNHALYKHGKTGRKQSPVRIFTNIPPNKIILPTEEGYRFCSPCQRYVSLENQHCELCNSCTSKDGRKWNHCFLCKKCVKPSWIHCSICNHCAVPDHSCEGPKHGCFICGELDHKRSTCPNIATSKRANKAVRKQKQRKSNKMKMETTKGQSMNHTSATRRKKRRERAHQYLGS
UniProt Q9HC38: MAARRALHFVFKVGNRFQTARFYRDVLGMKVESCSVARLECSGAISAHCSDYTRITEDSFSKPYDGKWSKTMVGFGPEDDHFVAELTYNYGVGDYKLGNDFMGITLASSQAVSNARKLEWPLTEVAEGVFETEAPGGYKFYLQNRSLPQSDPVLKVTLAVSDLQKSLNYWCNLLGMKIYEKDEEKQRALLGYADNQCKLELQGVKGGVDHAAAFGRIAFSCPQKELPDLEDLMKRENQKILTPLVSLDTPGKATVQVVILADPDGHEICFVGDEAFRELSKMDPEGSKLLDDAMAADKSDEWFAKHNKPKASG
UniProt Q9H9S4: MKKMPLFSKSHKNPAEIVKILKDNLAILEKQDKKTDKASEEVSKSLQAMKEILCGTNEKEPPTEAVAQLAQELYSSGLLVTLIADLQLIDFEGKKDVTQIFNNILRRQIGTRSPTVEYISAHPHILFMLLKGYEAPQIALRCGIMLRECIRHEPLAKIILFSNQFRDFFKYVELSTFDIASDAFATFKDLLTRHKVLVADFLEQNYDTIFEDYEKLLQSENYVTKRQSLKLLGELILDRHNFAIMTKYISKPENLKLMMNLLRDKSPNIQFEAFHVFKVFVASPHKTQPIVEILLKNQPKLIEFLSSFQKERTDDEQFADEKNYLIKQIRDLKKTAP
UniProt Q9H930: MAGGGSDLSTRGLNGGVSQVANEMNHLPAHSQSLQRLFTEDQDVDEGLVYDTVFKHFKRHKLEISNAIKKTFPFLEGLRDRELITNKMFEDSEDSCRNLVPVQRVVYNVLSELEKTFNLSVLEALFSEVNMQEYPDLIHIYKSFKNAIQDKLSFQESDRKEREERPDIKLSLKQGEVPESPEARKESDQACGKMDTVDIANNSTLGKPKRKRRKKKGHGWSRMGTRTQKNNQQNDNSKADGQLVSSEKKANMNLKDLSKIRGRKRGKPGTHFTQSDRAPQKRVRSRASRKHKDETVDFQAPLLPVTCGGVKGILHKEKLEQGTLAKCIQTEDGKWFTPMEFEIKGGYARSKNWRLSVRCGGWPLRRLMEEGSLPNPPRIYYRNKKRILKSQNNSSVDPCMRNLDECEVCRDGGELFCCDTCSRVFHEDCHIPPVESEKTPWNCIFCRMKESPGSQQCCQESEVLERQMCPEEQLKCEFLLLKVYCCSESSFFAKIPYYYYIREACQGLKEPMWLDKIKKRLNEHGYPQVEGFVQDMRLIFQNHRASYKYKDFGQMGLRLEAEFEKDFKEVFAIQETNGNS

compound: Cc1nc(Nc2ncc(C(=O)Nc3c(C)cccc3Cl)s2)cc(N2CCN(CCO)CC2)n1 [dasatinib]; assay: log2 fold change of tryptic peptide abundance, ligand vs vehicle (limited proteolysis) (log2 ratio); higher = more trypsin-susceptible (destabilized); conditions: ligand concentration: 5 uM; sample: K562 cleared lysate

Target	log2 fold change
UniProt Q9H765 (peptide sequence: VINLIGQTPISR, peptide start residue: 179)	-0.223
CARS2 (peptide sequence: GLTAHGINIK, peptide start residue: 532) (UniProt Q9HA77)	-0.349
CDC42EP4 (peptide sequence: SMGSHTTR, peptide start residue: 298) (UniProt Q9H3Q1)	-0.294
SFXN1 (peptide sequence: HVSPLIGR, peptide start residue: 171) (UniProt Q9H9B4)	-0.511
ZNF576 (peptide sequence: EHPADFVAQK, peptide start residue: 56) (UniProt Q9H609)	0.0482
XPO5 (peptide sequence: FFSTLYENCFHILGK, peptide start residue: 839) (UniProt Q9HAV4)	0.0828
SLC38A10 (peptide sequence: VISDGEQGGQQGHR, peptide start residue: 963) (UniProt Q9HBR0)	0.0752
GHITM (peptide sequence: EAALEPSMEK, peptide start residue: 64) (UniProt Q9H3K2)	0.159
ZWILCH (peptide sequence: DTEVETLK, peptide start residue: 319) (UniProt Q9H900)	-0.158
POFUT1 (peptide sequence: VAYCFEVAAQR, peptide start residue: 123) (UniProt Q9H488)	-0.32
UniProt Q9H4I0 (peptide sequence: ILQMLNR, peptide start residue: 486)	0.138
OSBPL2 (peptide sequence: TGERPSQENGIQK, peptide start residue: 47) (UniProt Q9H1P3)	0.247
PLEKHG2 (peptide sequence: AQGAPDAPFHM, peptide start residue: 1376) (UniProt Q9H7P9)	-0.206
PANK3 (peptide sequence: ESVSKEDLAR, peptide start residue: 282) (UniProt Q9H999)	-0.643
PIDD1 (peptide sequence: VNLIALQR, peptide start residue: 616) (UniProt Q9HB75)	0.178
EHD4 (peptide sequence: VVLNKADQVDTQQLMR, peptide start residue: 219) (UniProt Q9H223)	0.125
PATZ1 (peptide sequence: KANLLDSMFGSPGGLR, peptide start residue: 272) (UniProt Q9HBE1)	-0.0368
UniProt Q9HCE3 (peptide sequence: HLFIVHK, peptide start residue: 1171)	-0.279
ZCCHC4 (peptide sequence: RPSQLLYPLENKK, peptide start residue: 156) (UniProt Q9H5U6)	0.455
RSAD1 (peptide sequence: THSACDALR, peptide start residue: 171) (UniProt Q9HA92)	-0.415
EML4 (peptide sequence: DMSIIQWK, peptide start residue: 856) (UniProt Q9HC35)	-0.177
GLOD4 (peptide sequence: ALLGYADNQCK, peptide start residue: 188) (UniProt Q9HC38)	-0.207
FOXP1 (peptide sequence: QQEQLQLQLLQQQHAGKQPK, peptide start residue: 150) (UniProt Q9H334)	0.504
CAB39L (peptide sequence: VFVASPHKTQPIVEILLK, peptide start residue: 279) (UniProt Q9H9S4)	0.389
SP140L (peptide sequence: ADGQLVSSEKK, peptide start residue: 239) (UniProt Q9H930)	-1.3
WNK1 (peptide sequence: FYDSWESTVK, peptide start residue: 283) (UniProt Q9H4A3)	-0.187
ETNK1 (peptide sequence: LNVTVQDQEEHR, peptide start residue: 106) (UniProt Q9HBU6)	0.34
PHAX (peptide sequence: RRTPGGVFLNLLK, peptide start residue: 282) (UniProt Q9H814)	0.671

In another format: results already given.
PANK3 (peptide sequence: ESVSKEDLAR, peptide start residue: 282) (UniProt Q9H999)
  log2 fold change: -0.643
ETNK1 (peptide sequence: LNVTVQDQEEHR, peptide start residue: 106) (UniProt Q9HBU6)
  log2 fold change: 0.34
